From PMC7642293
No constants are given. Whether binding was seen depends on the method and setting. Binding seen in cells or lysates may run through a third protein. Some entries that bind do so weakly or less than the wild type.

Chains of the proteins cited; added tags and fusions are not shown.
UniProt Q92922: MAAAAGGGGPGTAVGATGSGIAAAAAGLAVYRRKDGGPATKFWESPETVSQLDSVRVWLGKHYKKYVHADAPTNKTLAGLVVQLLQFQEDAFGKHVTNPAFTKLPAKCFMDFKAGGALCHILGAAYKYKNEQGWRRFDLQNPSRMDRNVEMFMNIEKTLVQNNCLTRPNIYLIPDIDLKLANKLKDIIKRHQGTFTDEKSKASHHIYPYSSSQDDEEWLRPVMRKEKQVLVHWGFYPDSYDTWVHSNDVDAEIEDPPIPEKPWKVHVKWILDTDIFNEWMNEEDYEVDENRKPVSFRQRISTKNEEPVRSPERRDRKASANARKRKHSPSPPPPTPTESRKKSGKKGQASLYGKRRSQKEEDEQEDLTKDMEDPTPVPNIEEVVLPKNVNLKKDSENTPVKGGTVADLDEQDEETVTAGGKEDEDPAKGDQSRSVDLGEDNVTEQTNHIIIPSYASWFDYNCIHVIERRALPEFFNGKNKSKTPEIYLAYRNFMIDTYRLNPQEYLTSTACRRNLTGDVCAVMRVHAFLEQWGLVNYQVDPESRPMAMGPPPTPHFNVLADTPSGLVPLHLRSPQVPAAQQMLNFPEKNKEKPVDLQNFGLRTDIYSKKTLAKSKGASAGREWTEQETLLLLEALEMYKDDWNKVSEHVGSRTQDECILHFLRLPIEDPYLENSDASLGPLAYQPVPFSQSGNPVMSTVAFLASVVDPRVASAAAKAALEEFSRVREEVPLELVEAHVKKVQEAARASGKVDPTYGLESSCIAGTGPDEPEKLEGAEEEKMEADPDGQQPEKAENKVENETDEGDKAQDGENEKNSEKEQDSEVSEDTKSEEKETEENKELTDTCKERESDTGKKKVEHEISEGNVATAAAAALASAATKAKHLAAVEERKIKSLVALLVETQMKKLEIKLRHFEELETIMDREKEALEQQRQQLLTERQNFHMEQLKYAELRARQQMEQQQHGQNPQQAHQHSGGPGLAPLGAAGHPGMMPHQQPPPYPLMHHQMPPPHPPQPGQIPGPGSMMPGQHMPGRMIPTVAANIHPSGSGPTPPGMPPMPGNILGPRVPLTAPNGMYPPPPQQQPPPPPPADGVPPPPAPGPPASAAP
UniProt Q92826: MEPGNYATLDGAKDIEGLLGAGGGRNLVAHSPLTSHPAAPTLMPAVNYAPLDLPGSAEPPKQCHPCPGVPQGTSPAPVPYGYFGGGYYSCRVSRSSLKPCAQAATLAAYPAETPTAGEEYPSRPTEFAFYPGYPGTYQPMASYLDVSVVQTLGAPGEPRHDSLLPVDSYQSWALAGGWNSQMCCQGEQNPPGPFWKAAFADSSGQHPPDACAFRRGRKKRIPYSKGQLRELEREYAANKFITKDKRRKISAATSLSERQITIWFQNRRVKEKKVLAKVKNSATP
UniProt Q14839: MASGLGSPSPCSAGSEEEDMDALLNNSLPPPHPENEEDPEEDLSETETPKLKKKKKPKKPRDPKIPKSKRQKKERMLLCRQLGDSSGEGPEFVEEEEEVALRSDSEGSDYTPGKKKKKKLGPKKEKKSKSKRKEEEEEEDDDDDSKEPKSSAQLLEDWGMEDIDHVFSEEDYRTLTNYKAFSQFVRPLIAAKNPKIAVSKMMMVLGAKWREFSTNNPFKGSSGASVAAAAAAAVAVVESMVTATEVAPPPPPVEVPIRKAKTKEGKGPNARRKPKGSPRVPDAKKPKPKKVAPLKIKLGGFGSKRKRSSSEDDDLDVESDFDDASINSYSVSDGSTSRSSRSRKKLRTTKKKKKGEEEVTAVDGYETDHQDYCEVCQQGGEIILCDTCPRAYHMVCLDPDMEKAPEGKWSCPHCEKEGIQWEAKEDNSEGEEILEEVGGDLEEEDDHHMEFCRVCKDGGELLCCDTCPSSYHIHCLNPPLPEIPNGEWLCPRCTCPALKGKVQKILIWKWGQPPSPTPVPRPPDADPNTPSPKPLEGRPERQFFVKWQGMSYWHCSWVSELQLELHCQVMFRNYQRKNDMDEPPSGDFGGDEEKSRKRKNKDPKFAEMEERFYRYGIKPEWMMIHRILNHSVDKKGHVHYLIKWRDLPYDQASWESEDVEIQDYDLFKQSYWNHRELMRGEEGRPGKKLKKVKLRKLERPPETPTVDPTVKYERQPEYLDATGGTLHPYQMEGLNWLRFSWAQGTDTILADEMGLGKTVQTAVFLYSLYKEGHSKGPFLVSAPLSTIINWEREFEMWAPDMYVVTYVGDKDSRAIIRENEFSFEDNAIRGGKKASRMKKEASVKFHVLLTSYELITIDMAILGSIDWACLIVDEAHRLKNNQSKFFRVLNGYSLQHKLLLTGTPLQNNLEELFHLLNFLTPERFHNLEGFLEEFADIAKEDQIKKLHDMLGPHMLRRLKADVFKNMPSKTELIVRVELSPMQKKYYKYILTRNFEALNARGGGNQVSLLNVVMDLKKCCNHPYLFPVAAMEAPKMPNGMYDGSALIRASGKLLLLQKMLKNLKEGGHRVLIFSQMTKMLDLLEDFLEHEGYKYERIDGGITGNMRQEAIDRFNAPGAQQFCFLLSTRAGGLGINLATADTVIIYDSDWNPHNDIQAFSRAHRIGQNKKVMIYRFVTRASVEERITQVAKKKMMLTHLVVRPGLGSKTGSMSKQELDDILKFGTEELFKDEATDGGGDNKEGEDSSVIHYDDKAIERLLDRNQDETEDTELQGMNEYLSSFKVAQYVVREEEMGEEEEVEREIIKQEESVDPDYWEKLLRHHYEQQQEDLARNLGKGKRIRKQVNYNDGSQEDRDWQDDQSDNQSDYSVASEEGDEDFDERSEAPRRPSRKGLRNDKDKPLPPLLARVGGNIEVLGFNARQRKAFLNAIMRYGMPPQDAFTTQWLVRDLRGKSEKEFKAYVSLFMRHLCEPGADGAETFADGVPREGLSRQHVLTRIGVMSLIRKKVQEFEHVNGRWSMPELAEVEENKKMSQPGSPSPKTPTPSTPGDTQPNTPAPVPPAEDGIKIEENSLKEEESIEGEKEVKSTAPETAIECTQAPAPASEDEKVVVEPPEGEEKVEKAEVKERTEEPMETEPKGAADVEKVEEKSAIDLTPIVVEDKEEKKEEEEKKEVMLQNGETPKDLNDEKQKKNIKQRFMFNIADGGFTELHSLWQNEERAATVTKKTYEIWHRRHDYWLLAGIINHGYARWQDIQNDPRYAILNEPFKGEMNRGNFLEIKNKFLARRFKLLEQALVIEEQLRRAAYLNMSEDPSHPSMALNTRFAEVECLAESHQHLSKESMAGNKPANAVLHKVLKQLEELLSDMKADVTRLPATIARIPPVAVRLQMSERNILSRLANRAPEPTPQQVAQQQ

Tests used:
[1] = target: BAF155 (SMARCC1), core SWI/SNF subunit (human (endogenous in NCI-H660 and LNCaP-AR)) (UniProt Q92922); assay: co-IP; co-IP with anti-BAF155 antibody (rabbit IgG isotype control) from nuclear fraction of LNCaP-AR cells, overnight 4 °C, Protein G magnetic beads; immunoblotting
[2] = target: BAF155 (SMARCC1), core SWI/SNF subunit (human (endogenous in NCI-H660 and LNCaP-AR)) (UniProt Q92922); assay: co-IP; co-IP with anti-BAF155 antibody (rabbit IgG isotype control) from nuclear fraction of NCI-H660 cells, overnight 4 °C, Protein G magnetic beads; immunoblotting

For HOXB13 (from UniProt Q92826 1-284), which binding [1] is on record?
Its binding is “binds”.

Which results are given for CHD4 (from UniProt Q14839 1-1912)?
binding [1]: no binding (condition: in LNCaP-AR (adenocarcinoma) cells); binding [2]: binds

B1: transcription factor NK2 homeobox 1 (NKX2.1/TTF-1) (protein, UniProt P43699 1-371)
chain: MSMSPKHTTPFSVSDILSPLEESYKKVGMEGGGLGAPLAAYRQGQAAPPTAAMQQHAVGHHGAVTAAYHMTAAGVPQLSHSAVGGYCNGNLGNMSELPPYQDTMRNSASGPGWYGANPDPRFPAISRFMGPASGMNMSGMGGLGSLGDVSKNMAPLPSAPRRKRRVLFSQAQVYELERRFKQQKYLSAPEREHLASMIHLTPTQVKIWFQNHRYKMKRQAKDKAAQQQLQQDSGGGGGGGGTGCPQQQQAQQQSPRRVAVPVLVKDGKPCQAGAPAPGAASLQGHAQQQAQHQAQAAQAAAAAISVGSGGAGLGAHPGHQPGSAGQSPDLAHHAASPAALQGQVSSLSHLNSSGSDYGTMSCSTLLYGRTW
With B1 as the molecule, how does the binding [1] read?
Its binding is “no binding (condition: in LNCaP-AR (adenocarcinoma) cells)”.

And the binding [2]?
The binding was “binds”.

B2: growth factor VGF (protein, UniProt O15240 23-615)
chain: APPGRPEAQPPPLSSEHKEPVAGDAVPGPKDGSAPEVRGARNSEPQDEGELFQGVDPRALAAVLLQALDRPASPPAPSGSQQGPEEEAAEALLTETVRSQTHSLPAPESPEPAAPPRPQTPENGPEASDPSEELEALASLLQELRDFSPSSAKRQQETAAAETETRTHTLTRVNLESPGPERVWRASWGEFQARVPERAPLPPPAPSQFQARMPDSGPLPETHKFGEGVSSPKTHLGEALAPLSKAYQGVAAPFPKARRPESALLGGSEAGERLLQQGLAQVEAGRRQAEATRQAAAQEERLADLASDLLLQYLLQGGARQRGLGGRGLQEAAEERESAREEEEAEQERRGGEERVGEEDEEAAEAEAEAEEAERARQNALLFAEEEDGEAGAEDKRSQEETPGHRRKEAEGTEEGGEEEDDEEMDPQTIDSLIELSTKLHLPADDVVSIIEEVEEKRKRKKNAPPEPVPPPRAAPAPTHVRSPQPPPPAPAPARDELPDWNEVLPPWDREEDEVYPPGPYHPFPNYIRPRTLQPPSALRRRHYHHALPPSRHYPGREAQARRAQEEAEAEERRLQEQEELENYIEHVLLRRP
What does the source list for B2?
binding [1]: no binding (condition: in LNCaP-AR (adenocarcinoma) cells); binding [2]: binds
